From PubChem BioAssay AID651640 (Broad Institute, 2012)
Where “and” joins values, the source holds several entries; their conditions need not be identical. Equal values may be shown once. Screen size: about 350,000 compounds; about 6,000 (1.7%) were called active. The inconclusive results got no clear call from the source; some entries with a clear call stand among them for comparison. Rule as the data show it: active = CPE inhibition above about 20% (passing the limit was not always enough); inconclusive = no clear call, values can overlap the other calls; tested in BHK-21 cells.

Test: protection of cells from dengue 2 killing – plate reader, single concentration, primary screen (AID 651640);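 also: 0% = median of neutral control wells and 100% = median of positive control wells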
Conditions: DENV2-infected cells, cytopathic effect rescue, at 9.99 µM, stronger effect = higher value

SMILES	CPE inhibition
Cc1ccc(S(=O)(=O)N(c2nc(NC(C)C)nc(NC(C)C)n2)n2cnnc2)cc1	active: 24.2%
CCc1c(C)[nH]n(-c2nc(-c3cccc([N+](=O)[O-])c3)cs2)c1=O	inconclusive: 25.1%
CC(C)C[C@@H](CN1CCCC1CN1C(=S)NC[C@@H]1Cc1ccc(O)cc1)N1C[C@H](Cc2ccc(O)cc2)N(CC2CCCCCC2)C1=S (some centres not stated)	active: 41%
O=C([C@H]1[C@H](CO)[C@H]2Cn3c(ccc(-c4ccncc4)c3=O)[C@@H]1N2Cc1cccnc1)N1CCOCC1	inconclusive: 30.1%
CN1CCN(C(=O)OC2CC3CC2[C@H]2CCCCN2C3=O)CC1 (some centres not stated)	inconclusive: 57.3%
CCNC(=S)N1C2CCC1CC(NC(=O)Nc1ccc(C(=O)OCC)cc1)C2 (configuration not stated)	inactive: -5.71%
C#Cc1ccc([C@H]2C=C(C(=O)N3CCOCC3)O[C@@H](OCCCCO)C2)cc1	inconclusive: 29.1%
CN(C)Cc1c(C(=O)N/N=C/c2cccs2)nnn1-c1nonc1N	inconclusive: 27.3%
CN(C)CC(=O)N1CC2(C1)[C@H](c1ccccc1)[C@H](CO)N2C(=O)C1CC1	active: 24.3%
COCCCNC(=O)C1Cc2cc(S(=O)(=O)N3CCCC3)ccc2N1C(C)=O (configuration not stated)	inconclusive: 36.3%
COCC(=O)Nc1ccc2c(c1)C(=O)N(C)[C@@H]1CC[C@H](CC(=O)NC3CCCC3)O[C@@H]1CO2	inconclusive: 26.7%
CCC(=O)c1ccc(OCC(=O)N2CCN(c3ncccn3)CC2)cc1	inconclusive: 47.6%
Cc1ccc(Cc2c(-c3ccc(Cl)cc3)nc3cc(C)c(Br)c(C)n23)cc1	inactive: -7.29%
CC1=CC(=O)[C@@H](O)[C@@H](c2ccccc2Br)N1C	inactive: -7.38%
CCCc1cn(CC[C@H]2CC[C@@H](NC(=O)C3CCCC3)[C@@H](CO)O2)nn1	inactive: -4.95%
O=C(Nc1ccc2c(c1)OCO2)N1[C@@H]2CNC[C@H]1C2c1ccc(/C=C/c2ccccc2)cc1 (some centres not stated)	active: 79.2%
COc1ccc2c3c([nH]c2c1)[C@H](CO)N(C(=O)Nc1c(C)noc1C)CC31CCN(CC2CC2)CC1	active: 42.1%
O=C(CCSCCC(=O)Nc1c(F)c(F)c(F)c(F)c1F)Nc1c(F)c(F)c(F)c(F)c1F	inconclusive: 22.1%
CC(=O)Nc1ccc(NC(=O)CSc2ccc(-c3ccco3)nn2)cc1	inconclusive: 22.5%
CC1(C(=O)NS(=O)(=O)c2ccc(C#N)cc2)CCN1C(=O)Cc1ccsc1 (configuration not stated)	inconclusive: 45.2%
COc1ccc2c3c([nH]c2c1)[C@H](CO)N(C(=O)CN1CCOCC1)CC31CN(Cc2ccccc2)C1	active: 52%
C[C@@H]1CC[C@H]2C(=O)N3[C@@H](CC[C@@H](C)[C@@H]3c3ccc(Br)cc3)C(=O)N2[C@H]1c1ccc(Br)cc1	inconclusive: 36%
Cc1ccc(S(=O)(=O)c2cc(Nc3ccccc3)ccc2O)cc1	inconclusive: 89.2%
COCC(=O)Nc1ccc2c(c1)C(=O)N(C)C[C@H](OC)[C@@H](C)CN(C(C)=O)[C@@H](C)CO2	inactive: 0.063%

In another format: entries from further up.
SMILES | CPE inhibition
Cc1ccc(S(=O)(=O)N(c2nc(NC(C)C)nc(NC(C)C)n2)n2cnnc2)cc1 | active: 24.2%
CC(C)C[C@@H](CN1CCCC1CN1C(=S)NC[C@@H]1Cc1ccc(O)cc1)N1C[C@H](Cc2ccc(O)cc2)N(CC2CCCCCC2)C1=S (some centres not stated) | active: 41%
CCNC(=S)N1C2CCC1CC(NC(=O)Nc1ccc(C(=O)OCC)cc1)C2 (configuration not stated) | inactive: -5.71%
C#Cc1ccc([C@H]2C=C(C(=O)N3CCOCC3)O[C@@H](OCCCCO)C2)cc1 | inconclusive: 29.1%
CN(C)Cc1c(C(=O)N/N=C/c2cccs2)nnn1-c1nonc1N | inconclusive: 27.3%
COCCCNC(=O)C1Cc2cc(S(=O)(=O)N3CCCC3)ccc2N1C(C)=O (configuration not stated) | inconclusive: 36.3%
COCC(=O)Nc1ccc2c(c1)C(=O)N(C)[C@@H]1CC[C@H](CC(=O)NC3CCCC3)O[C@@H]1CO2 | inconclusive: 26.7%
Cc1ccc(Cc2c(-c3ccc(Cl)cc3)nc3cc(C)c(Br)c(C)n23)cc1 | inactive: -7.29%
CC1=CC(=O)[C@@H](O)[C@@H](c2ccccc2Br)N1C | inactive: -7.38%
COc1ccc2c3c([nH]c2c1)[C@H](CO)N(C(=O)Nc1c(C)noc1C)CC31CCN(CC2CC2)CC1 | active: 42.1%
O=C(CCSCCC(=O)Nc1c(F)c(F)c(F)c(F)c1F)Nc1c(F)c(F)c(F)c(F)c1F | inconclusive: 22.1%
CC(=O)Nc1ccc(NC(=O)CSc2ccc(-c3ccco3)nn2)cc1 | inconclusive: 22.5%
COc1ccc2c3c([nH]c2c1)[C@H](CO)N(C(=O)CN1CCOCC1)CC31CN(Cc2ccccc2)C1 | active: 52%
C[C@@H]1CC[C@H]2C(=O)N3[C@@H](CC[C@@H](C)[C@@H]3c3ccc(Br)cc3)C(=O)N2[C@H]1c1ccc(Br)cc1 | inconclusive: 36%
Cc1ccc(S(=O)(=O)c2cc(Nc3ccccc3)ccc2O)cc1 | inconclusive: 89.2%
COCC(=O)Nc1ccc2c(c1)C(=O)N(C)C[C@H](OC)[C@@H](C)CN(C(C)=O)[C@@H](C)CO2 | inactive: 0.063%

Remaining list, next part:

SMILES	CPE inhibition
CC(C)C(=O)Nc1ccc(N2CCOCC2)c(S(=O)(=O)Nc2ccccc2Cl)c1	inconclusive: 21.3%
COCC(=O)N1CC2(CN(C(=O)NC(C)C)C2)c2c(n(C)c3cc(OC)ccc23)[C@@H]1CO	active: 25.8%
CC(C)C[C@@H](CNCC(=O)[C@H](CC(C)C)NC(=O)c1[nH]cnc1C(=O)N[C@@H](C)CN)NC(=O)c1nc[nH]c1C(=O)N[C@@H](CC(C)C)C(=O)O	inactive: -11.7%
COC(=O)C1=C[C@@H](C(=O)OC)C2C3=C(C(=O)C24CCCCC4)[C@H](C)n2c(=O)n(-c4ccccc4)c(=O)n2[C@@H]3C1 (some centres not stated)	inconclusive: 44.4%
N#C[C@@H]1[C@@H](c2ccccc2)[C@@H](CO)N1C(=O)c1cc(Cl)cc(Cl)c1	inconclusive: 49.8%
COc1ccc(/C=N/NC(=O)c2cc(-c3ccccc3)nc3ccccc23)c(C(=O)O)c1OC	inconclusive: 28.8%
C[C@H]1CN([C@@H](C)CO)C(=O)Cc2cc(NS(C)(=O)=O)ccc2O[C@H]1CN(C)C(=O)Nc1cccc2ccccc12	inconclusive: 21.3%
CNC(=O)C[C@H]1CC[C@@H]2[C@H](COc3ccc(NC(=O)Nc4ccc(F)c(F)c4)cc3C(=O)N2C)O1	inconclusive: 20.6%
C[C@@H]1CN([C@@H](C)CO)C(=O)c2cccc(NS(C)(=O)=O)c2O[C@H]1CN(C)C	inactive: -2.04%
Cc1csc(SCC(=O)Nc2ccccc2C)n1	inactive: 5.6%
CCCNC(=O)N1[C@H](CO)[C@@H](c2ccc(C3=CCCC3)cc2)[C@@H]1CN(C)C(C)=O	inactive: -4.56%
C[C@@H]1CCCCO[C@@H](CN(C)C(=O)Nc2ccc(C(F)(F)F)cc2)[C@H](C)CN([C@H](C)CO)C(=O)c2cc(NC(=O)Cc3ccccc3)ccc2O1	active: 91.1%
CS(=O)(=O)N(CCC#N)Cc1ccc(/C=C2\C(=O)Nc3ccccc32)o1	inconclusive: 28.2%
COCCNc1nc2cc(-c3ccccc3OC)sc2c(=O)n1C	inconclusive: 28.6%
Cc1ccc(C)c(NC(=O)C(CC(=O)O)Cc2ccccc2)c1 (configuration not stated)	inconclusive: 23.9%
CCCC#Cc1cnc2c(c1)C(=O)N([C@@H](C)CO)C[C@H](C)[C@@H](CN(C)C(=O)CCN1CCCCC1)O2	inconclusive: 39.7%
CCOC(=O)C1CCCN(C(=O)c2cc(-c3ccco3)nc3ccccc23)C1 (configuration not stated)	inconclusive: 45.4%
CCOC1=C2CN(S(=O)(=O)c3ccc(C)cc3)[C@H](c3ccccc3)C[C@H]2[C@H]2C(=O)N(c3ccccc3)C(=O)[C@H]2C1	active: 49.1%
C[C@@H]1CN([C@H](C)CO)C(=O)Cc2cc(NC(=O)Cc3cn(C)c4ccccc34)ccc2O[C@@H]1CN(C)Cc1ccc(Oc2ccccc2)cc1	inactive: 5.86%
Cc1scc2c1N(C(=O)CN1CCN(C)CC1)c1ccccc1NC2=O	inconclusive: 49.3%
CC(C)CC#Cc1cnc2c(c1)C(=O)N([C@@H](C)CO)C[C@@H](C)[C@H](CN(C)C(=O)c1cnccn1)O2	inactive: -5.09%
CCCNC(=S)NNC(=O)c1cc(C2CC2)nc2ccccc12	active: 24.6%
Cc1ccc(NC(=O)c2cc(S(=O)(=O)N(C)C)ccc2N2CCCC2)cc1S(=O)(=O)N(C)C	inconclusive: 25.3%
C[C@H]1[C@@H](c2ccccc2)Oc2ccc(Cl)cc2S(=O)(=O)N1Cc1cccc(Cl)c1	inconclusive: 68.7%

SMILES	CPE inhibition
COc1ccc(-c2c(C(=O)c3ccccc3)[nH]c(N)c2C(=O)NC2CC2)cc1OC	inconclusive: 20.5%
O=C(c1cccc(C(F)(F)F)c1)N1CCC(=O)N(C(CO)Cc2ccccc2)CC1 (configuration not stated)	inconclusive: 21.7%
COc1cccc(C(O)c2nc(-c3cccc4cccnc34)cs2)c1 (configuration not stated)	inconclusive: 25.6%
C[C@H](CO)N1C[C@H](C)[C@H](CN(C)C(=O)C2CCC2)Oc2ncc(-c3ccc(F)cc3)cc2C1=O	inactive: 8.12%
Cc1cccnc1NC(=O)c1ccc(C(=O)c2ccccc2)cc1	inconclusive: 23.7%
CCOc1ccc(CCNC(=O)COC(=O)/C=C/c2ccc(OC)c(OC)c2)cc1OCC	inconclusive: 24.5%
C=CCOC(=O)C1=C[C@@H](c2ccc(Br)cc2)C[C@@H](OCc2ccc(CO)cc2)O1	inactive: 10.6% and inactive: -3.3%
Cc1ccccc1S(=O)(=O)NCC[C@H]1CC[C@@H](NC(=O)C2CCCCC2)[C@@H](CO)O1	inconclusive: 27.2%
CN1c2ccc(Br)cc2[C@@H]2[C@@H](CCN2C(=O)C2CCCC2)[C@H]1CO	active: 99.1%
C[C@H]1CN([C@@H](C)CO)C(=O)c2cc(NC(=O)CCC(F)(F)F)ccc2O[C@H]1CN(C)Cc1ccc(C(F)(F)F)cc1	inconclusive: 35.6%
NCC[C@H]1CC[C@@H](NC(=O)Nc2ccc(F)cc2)[C@@H](CO)O1	inconclusive: 25.6%
Cc1ccc(-c2cnc3c(c2)C(=O)N([C@H](C)CO)C[C@H](C)[C@H](CN(C)C(=O)Cc2ccccc2)O3)cc1	active: 75.8%
O=C(CN1CCc2cc3c(cc2C1)OCCCO3)Nc1ccccc1	active: 28.1%
CCC(C)[C@H](NC(=O)N1CCN(C)CC1)C(=O)OC (some centres not stated)	inconclusive: 22.3%
C[C@@H]1CN([C@H](C)CO)C(=O)c2cc(NC(=O)Cn3cnnn3)ccc2O[C@H]1CN(C)S(=O)(=O)c1cccs1	inconclusive: 27.6%
Cc1cc(Cl)nc(-n2nc(C)cc2C)n1	inactive: -1.32%
O=C(NCC[C@@H]1CC[C@H](NC(=O)c2cnccn2)[C@@H](CO)O1)Nc1ccc(F)cc1	inactive: 7.78%
C[C@@H]1CCCCO[C@H](CN(C)C(=O)CCC(F)(F)F)[C@@H](C)CN([C@@H](C)CO)C(=O)c2cc(NC(=O)Nc3ccccc3)ccc2O1	inactive: -1.81%
O=C(OC1CCCC1)c1ccc(Cl)cc1Cl	inconclusive: 49.6%
CCCc1ccc(S(=O)(=O)N/N=C(/C)c2ccc3c(c2)OCO3)cc1	inconclusive: 24.1%
Nc1nc(-c2ccc(C(=O)O)cc2)cs1	inactive: -3.21%
CC1(C(=O)Nc2ccc3ccccc3c2)CCC(=O)N1CC(F)(F)F (configuration not stated)	inconclusive: 21%
COc1ccccc1CC(=O)NNC(=O)CN(C)S(=O)(=O)c1ccc(Cl)cc1	inconclusive: 20.8%
C[C@@H]1CN([C@H](C)CO)C(=O)c2cc(NS(C)(=O)=O)ccc2O[C@@H](C)CCCCO[C@H]1CN(C)S(=O)(=O)c1ccc(F)cc1	active: 26.6%
